Reference: PubChem BioAssay AID248 (DTP/NCI, 2004)
The list does not hold the whole screen: it gathers tests that were run many times, whatever their T/C, doses with no T/C, and many T/C values between a quarter and a half above the control. Other doses and runs of a compound stand elsewhere. T/C is the treated group as % of the vehicle group. Some doses have a count of surviving animals in place of a T/C: the source files T/C as zero there, which appears to mark a toxic dose or a test without result, not a measured value. Some survivor counts are full or nearly so, which does not show that the dose was tolerated: the source hardly ever lists a survival T/C far under the control, and the zero likely stands for such cases as well. Survivors were counted at the toxicity check, usually on the fifth day, unless a day is given; later deaths do not show. Schedule codes are those of the source, taken here to give the interval after Q, in days (D) or hours (H), and the number of doses after X. Some entries hold several experiments; the values are given in rising order. Some schedules carry Z or #; the key to these is not given. Where survival is the endpoint, the PubChem record calls one and a half times the control and up active, and a quarter to a half above the control has no call in these data; cut-offs in other NCI protocols can differ. Signs of the kind (2×) give the number of equal values in this list. Some T/C values carry the count of animals alive at the toxicity check (mostly the fifth day); where none is given, no animal had died by that day.

System: L1210 leukemia ip in BDF1 mice, survival T/C
Assay: NCI In Vivo Anticancer Drug Screen. Data for tumor model L1210 Leukemia (intraperitoneal) in B6D2F1 (BDF1) mice
Details: higher T/C = longer survival
[1] = T/C endpoint: mean survival time, dose: 20.0 mg/kg/injection, schedule: Q01DX009 (ip), vehicle: saline
[2] = T/C endpoint: mean survival time, dose: 191.2 mg/kg/injection, schedule: Q02DX010 (ip), vehicle: carboxymethylcellulose (CMC)
[3] = T/C endpoint: mean survival time, dose: 400.0 mg/kg/injection, schedule: Q04DX003 (ip), vehicle: saline with Tween-80

## C[C@@H]1C[C@@H]([C@H](O)CC2CC(=O)NC(=O)C2)C(=O)[C@@H](C)C1
T/C endpoint: mean survival time, dose: 5.0 mg/kg/injection, schedule: Q01DX009 (ip), vehicle: saline
  T/C: 94, 97, 101, 104 % of control
T/C endpoint: mean survival time, dose: 10.0 mg/kg/injection, schedule: Q01DX009 (ip), vehicle: saline
  T/C: 103, 107, 108, 109 % of control
[1]
  T/C: 112, 113, 117, 123 % of control
T/C endpoint: mean survival time, dose: 24.0 mg/kg/injection, schedule: Q01DX015 (ip), vehicle: saline
  T/C: 145 % of control
T/C endpoint: mean survival time, dose: 30.0 mg/kg/injection, schedule: Q01DX009 (ip), vehicle: saline
  T/C: 134 % of control
T/C endpoint: mean survival time, dose: 30.0 mg/kg/injection, schedule: Q01DX Z (ip), vehicle: carboxymethylcellulose (CMC)
  T/C: 133 and 135 % of control
T/C endpoint: mean survival time, dose: 36.0 mg/kg/injection, schedule: Q01DX015 (ip), vehicle: saline
  T/C: 137 % of control
T/C endpoint: mean survival time, dose: 36.5 mg/kg/injection, schedule: Q02DX010 (ip), vehicle: carboxymethylcellulose (CMC)
  T/C: 113, 114, 118, 122 % of control
T/C endpoint: mean survival time, dose: 40.0 mg/kg/injection, schedule: Q01DX009 (ip), vehicle: acetone
  T/C: 138 % of control
T/C endpoint: mean survival time, dose: 40.0 mg/kg/injection, schedule: Q01DX009 (ip), vehicle: saline
  T/C: 123, 130, 136 % of control (2×)
T/C endpoint: mean survival time, dose: 50.0 mg/kg/injection, schedule: Q01DX009 (ip), vehicle: saline with Tween-80
  T/C: 140 % of control [4 of 6 alive]
T/C endpoint: mean survival time, dose: 54.0 mg/kg/injection, schedule: Q01DX015 (ip), vehicle: saline
  T/C: 125 % of control
T/C endpoint: mean survival time, dose: 57.0 mg/kg/injection, schedule: Q02DX010 (ip), vehicle: carboxymethylcellulose (CMC)
  T/C: 111, 117, 131, 143 % of control
T/C endpoint: mean survival time, dose: 57.0 mg/kg/injection, schedule: Q02DX010 (ip), vehicle: other
  T/C: 145 % of control
T/C endpoint: mean survival time, dose: 60.0 mg/kg/injection, schedule: Q01DX009 (ip), vehicle: Klucel (hydroxypropylcellulose) (HPC)
  T/C: 126 % of control
T/C endpoint: mean survival time, dose: 60.0 mg/kg/injection, schedule: Q01DX009 (ip), vehicle: saline with Tween-80
  T/C: 129 % of control
T/C endpoint: mean survival time, dose: 80.0 mg/kg/injection, schedule: Q01DX009 (ip), vehicle: acetone
  survivor count: 5 of 6
T/C endpoint: mean survival time, dose: 84.0 mg/kg/injection, schedule: Q02DX008 (ip), vehicle: saline
  T/C: 129 % of control
T/C endpoint: mean survival time, dose: 85.0 mg/kg/injection, schedule: Q02DX010 (ip), vehicle: carboxymethylcellulose (CMC)
  T/C: 121, 132, 137, 141 % of control
T/C endpoint: mean survival time, dose: 120.0 mg/kg/injection, schedule: Q04DX003 (ip), vehicle: Klucel (hydroxypropylcellulose) (HPC)
  T/C: 127 % of control
T/C endpoint: mean survival time, dose: 127.5 mg/kg/injection, schedule: Q02DX010 (ip), vehicle: carboxymethylcellulose (CMC)
  T/C: 65, 82, 107, 128 % of control
T/C endpoint: mean survival time, dose: 135.0 mg/kg/injection, schedule: Q01DX009 (ip), vehicle: saline
  survivor count: 4 of 6
T/C endpoint: mean survival time, dose: 160.0 mg/kg/injection, schedule: Q01DX009 (ip), vehicle: acetone
  survivor count: 0 of 6
[2]
  T/C: 65, 73, 104 % of control
  survivor count: 6 of 6
T/C endpoint: mean survival time, dose: 200.0 mg/kg/injection, schedule: Q01DX009 (ip), vehicle: saline with Tween-80
  survivor count: 1 of 6
T/C endpoint: mean survival time, dose: 200.0 mg/kg/injection, schedule: Q01DX009 (ip), vehicle: saline
  survivor count: 0 of 6
T/C endpoint: mean survival time, dose: 270.0 mg/kg/injection, schedule: Q01DX001 (ip), vehicle: alkali diluted with saline
  survivor count: 5 of 10
T/C endpoint: mean survival time, dose: 270.0 mg/kg/injection, schedule: Q04DX003 (ip), vehicle: saline
  survivor count: 5 of 6
T/C endpoint: mean survival time, dose: 320.0 mg/kg/injection, schedule: Q## X032 (ip), vehicle: saline
  survivor count: 1 of 10
[3]
  survivor count: 0 of 6
T/C endpoint: mean survival time, dose: 405.0 mg/kg/injection, schedule: Q01DX001 (ip), vehicle: alkali diluted with saline
  survivor count: 2 of 10
T/C endpoint: mean survival time, dose: 410.0 mg/kg/injection, schedule: Q04DX003 (ip), vehicle: saline
  survivor count: 0 of 6
T/C endpoint: mean survival time, dose: 615.0 mg/kg/injection, schedule: Q04DX003 (ip), vehicle: saline
  survivor count: 0 of 6
T/C endpoint: median survival time, dose: 400.0 mg/kg/injection, schedule: Q04DX003 (ip), vehicle: alkali diluted with saline
  survivor count: 3 of 8

## CCc1cccc(CC)c1N1C(=O)C2C(C1=O)C1(Cl)C(Cl)=C(Cl)C2(Cl)C1(Cl)Cl (centres undefined)
T/C endpoint: mean survival time, dose: 100.0 mg/kg/injection, schedule: Q01DX009 (ip), vehicle: Klucel (hydroxypropylcellulose) (HPC)
  survivor count: 3 of 6
T/C endpoint: mean survival time, dose: 150.0 mg/kg/injection, schedule: Q01DX009 (ip), vehicle: Klucel (hydroxypropylcellulose) (HPC)
  survivor count: 0 of 6
T/C endpoint: mean survival time, dose: 200.0 mg/kg/injection, schedule: Q04DX003 (ip), vehicle: Klucel (hydroxypropylcellulose) (HPC)
  survivor count: 0 of 6
T/C endpoint: mean survival time, dose: 225.0 mg/kg/injection, schedule: Q01DX009 (ip), vehicle: Klucel (hydroxypropylcellulose) (HPC)
  survivor count: 0 of 6
T/C endpoint: mean survival time, dose: 335.0 mg/kg/injection, schedule: Q01DX009 (ip), vehicle: Klucel (hydroxypropylcellulose) (HPC)
  survivor count: 0 of 6
T/C endpoint: mean survival time, dose: 400.0 mg/kg/injection, schedule: Q04DX003 (ip), vehicle: Klucel (hydroxypropylcellulose) (HPC)
  survivor count: 0 of 6

## O=c1oc(-c2ccccc2)nc2cc(Cl)ccc12
T/C endpoint: mean survival time, dose: 200.0 mg/kg/injection, schedule: Q04DX003 (ip), vehicle: saline with Tween-80
  survivor count: 3 of 6
[3]
  survivor count: 0 of 6

## FC(F)(F)S.[Hg]
[1]
  survivor count: 3 of 6
T/C endpoint: mean survival time, dose: 100.0 mg/kg/injection, schedule: Q04DX003 (ip), vehicle: saline
  survivor count: 0 of 6
T/C endpoint: mean survival time, dose: 200.0 mg/kg/injection, schedule: Q04DX003 (ip), vehicle: saline
  survivor count: 0 of 6
T/C endpoint: mean survival time, dose: 400.0 mg/kg/injection, schedule: Q04DX003 (ip), vehicle: saline
  survivor count: 0 of 6

## OCCOc1cc(Cl)c(Cl)cc1Cl
T/C endpoint: mean survival time, dose: 200.0 mg/kg/injection, schedule: Q01DX009 (ip), vehicle: carboxymethylcellulose (CMC)
  survivor count: 1 of 3 and 5 of 6
T/C endpoint: mean survival time, dose: 400.0 mg/kg/injection, schedule: Q01DX009 (ip), vehicle: saline with Tween-80
  survivor count: 5 of 6
T/C endpoint: mean survival time, dose: 400.0 mg/kg/injection, schedule: Q04DX002 (ip), vehicle: carboxymethylcellulose (CMC)
  survivor count: 0 of 3 and 3 of 6

## CN(C)CCC(CNC1=NCCN1)c1cccc2ccccc12 (centres undefined)
T/C endpoint: mean survival time, dose: 100.0 mg/kg/injection, schedule: Q04DX002 (ip), vehicle: saline with Tween-80
  survivor count: 1 of 3
T/C endpoint: mean survival time, dose: 200.0 mg/kg/injection, schedule: Q04DX002 (ip), vehicle: saline with Tween-80
  survivor count: 0 of 3
T/C endpoint: mean survival time, dose: 400.0 mg/kg/injection, schedule: Q04DX002 (ip), vehicle: saline with Tween-80
  survivor count: 1 of 3

## CC(C(=O)O)N(CC(=O)O)CC(=O)O.[Co+2].[NH-]CC(=O)O (centres undefined)
T/C endpoint: mean survival time, dose: 21.0 mg/kg/injection, schedule: Q01DX009 (ip), vehicle: water
  T/C: 146 % of control
T/C endpoint: mean survival time, dose: 100.0 mg/kg/injection, schedule: Q01DX009 (ip), vehicle: water
  survivor count: 5 of 6
T/C endpoint: mean survival time, dose: 200.0 mg/kg/injection, schedule: Q01DX009 (ip), vehicle: water
  survivor count: 0 of 6
T/C endpoint: mean survival time, dose: 400.0 mg/kg/injection, schedule: Q04DX003 (ip), vehicle: water
  survivor count: 0 of 6

## CCC(/C=N/N=C(N)N)OC (centres undefined)
T/C endpoint: mean survival time, dose: 15.0 mg/kg/injection, schedule: Q01DX Z (ip), vehicle: saline
  survivor count: 3 of 6
T/C endpoint: mean survival time, dose: 30.0 mg/kg/injection, schedule: Q01DX Z (ip), vehicle: saline
  survivor count: 0 of 6
T/C endpoint: mean survival time, dose: 60.0 mg/kg/injection, schedule: Q01DX Z (ip), vehicle: saline
  survivor count: 0 of 6
T/C endpoint: mean survival time, dose: 120.0 mg/kg/injection, schedule: Q01DX Z (ip), vehicle: saline
  survivor count: 0 of 6
T/C endpoint: mean survival time, dose: 512.0 mg/kg/injection, schedule: Q01DX Z (oral), vehicle: saline
  survivor count: 3 of 6
T/C endpoint: mean survival time, dose: 1024.0 mg/kg/injection, schedule: Q01DX Z (oral), vehicle: saline
  survivor count: 0 of 6

## COc1ccc(CC(=O)OOC(C)(C)C)cc1
[3]
  survivor count: 3 of 3
